Data: paper PMC3048406
No constants are given. Whether binding was seen depends on the method and setting. In cells and extracts the contact can be indirect. Some binding calls cover weakened binding; strength is not graded here.

The chains behind the UniProt entries cited, without tags or fusion partners. Residues count along the entry.
UniProt P41739: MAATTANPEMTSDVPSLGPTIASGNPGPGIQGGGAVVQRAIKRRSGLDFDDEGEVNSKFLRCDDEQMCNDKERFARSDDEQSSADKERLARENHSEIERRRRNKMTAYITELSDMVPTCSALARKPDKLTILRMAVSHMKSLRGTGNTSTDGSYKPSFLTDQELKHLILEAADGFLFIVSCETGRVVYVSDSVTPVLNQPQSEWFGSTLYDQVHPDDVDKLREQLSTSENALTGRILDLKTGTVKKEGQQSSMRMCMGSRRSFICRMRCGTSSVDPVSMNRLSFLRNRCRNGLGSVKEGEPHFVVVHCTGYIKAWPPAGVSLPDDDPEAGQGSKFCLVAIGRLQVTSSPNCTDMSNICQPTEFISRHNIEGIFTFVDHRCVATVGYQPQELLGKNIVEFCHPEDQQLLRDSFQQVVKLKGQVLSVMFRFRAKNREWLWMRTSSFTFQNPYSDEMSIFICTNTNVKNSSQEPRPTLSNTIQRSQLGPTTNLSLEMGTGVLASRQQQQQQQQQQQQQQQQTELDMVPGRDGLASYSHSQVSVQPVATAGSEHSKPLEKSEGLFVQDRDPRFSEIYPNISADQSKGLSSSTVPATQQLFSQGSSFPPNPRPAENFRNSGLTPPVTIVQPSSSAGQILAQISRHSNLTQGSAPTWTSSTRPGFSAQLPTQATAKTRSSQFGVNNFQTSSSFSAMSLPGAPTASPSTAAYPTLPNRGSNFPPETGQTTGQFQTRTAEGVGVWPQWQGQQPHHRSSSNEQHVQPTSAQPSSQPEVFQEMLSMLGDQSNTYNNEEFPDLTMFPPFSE
UniProt Q5I0H3, residues 1-97: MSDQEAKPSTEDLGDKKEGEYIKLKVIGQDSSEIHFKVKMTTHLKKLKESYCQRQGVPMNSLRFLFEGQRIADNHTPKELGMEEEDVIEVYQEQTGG
UniProt O35800: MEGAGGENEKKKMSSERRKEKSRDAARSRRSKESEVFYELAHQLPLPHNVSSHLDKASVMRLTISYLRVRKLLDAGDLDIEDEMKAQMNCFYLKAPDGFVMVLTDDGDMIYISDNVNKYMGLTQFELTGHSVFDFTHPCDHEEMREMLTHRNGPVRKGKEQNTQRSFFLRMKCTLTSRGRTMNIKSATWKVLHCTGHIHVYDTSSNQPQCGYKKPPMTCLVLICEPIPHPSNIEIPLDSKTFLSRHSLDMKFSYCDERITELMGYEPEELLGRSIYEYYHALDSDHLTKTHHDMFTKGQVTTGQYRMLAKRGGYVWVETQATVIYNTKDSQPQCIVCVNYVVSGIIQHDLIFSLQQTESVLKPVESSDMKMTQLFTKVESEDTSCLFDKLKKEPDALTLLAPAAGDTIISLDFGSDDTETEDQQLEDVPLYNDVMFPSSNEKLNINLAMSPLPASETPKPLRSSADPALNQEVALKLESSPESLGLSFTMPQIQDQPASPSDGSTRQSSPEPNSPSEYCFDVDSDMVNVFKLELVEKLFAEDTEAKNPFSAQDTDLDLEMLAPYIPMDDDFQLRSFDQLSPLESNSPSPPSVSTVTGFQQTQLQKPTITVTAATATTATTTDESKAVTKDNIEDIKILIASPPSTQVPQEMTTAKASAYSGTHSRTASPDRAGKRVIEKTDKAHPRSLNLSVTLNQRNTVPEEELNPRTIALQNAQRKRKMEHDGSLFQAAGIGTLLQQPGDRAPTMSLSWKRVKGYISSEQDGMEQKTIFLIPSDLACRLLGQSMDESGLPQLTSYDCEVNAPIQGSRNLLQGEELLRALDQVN
UniProt Q9JHS1: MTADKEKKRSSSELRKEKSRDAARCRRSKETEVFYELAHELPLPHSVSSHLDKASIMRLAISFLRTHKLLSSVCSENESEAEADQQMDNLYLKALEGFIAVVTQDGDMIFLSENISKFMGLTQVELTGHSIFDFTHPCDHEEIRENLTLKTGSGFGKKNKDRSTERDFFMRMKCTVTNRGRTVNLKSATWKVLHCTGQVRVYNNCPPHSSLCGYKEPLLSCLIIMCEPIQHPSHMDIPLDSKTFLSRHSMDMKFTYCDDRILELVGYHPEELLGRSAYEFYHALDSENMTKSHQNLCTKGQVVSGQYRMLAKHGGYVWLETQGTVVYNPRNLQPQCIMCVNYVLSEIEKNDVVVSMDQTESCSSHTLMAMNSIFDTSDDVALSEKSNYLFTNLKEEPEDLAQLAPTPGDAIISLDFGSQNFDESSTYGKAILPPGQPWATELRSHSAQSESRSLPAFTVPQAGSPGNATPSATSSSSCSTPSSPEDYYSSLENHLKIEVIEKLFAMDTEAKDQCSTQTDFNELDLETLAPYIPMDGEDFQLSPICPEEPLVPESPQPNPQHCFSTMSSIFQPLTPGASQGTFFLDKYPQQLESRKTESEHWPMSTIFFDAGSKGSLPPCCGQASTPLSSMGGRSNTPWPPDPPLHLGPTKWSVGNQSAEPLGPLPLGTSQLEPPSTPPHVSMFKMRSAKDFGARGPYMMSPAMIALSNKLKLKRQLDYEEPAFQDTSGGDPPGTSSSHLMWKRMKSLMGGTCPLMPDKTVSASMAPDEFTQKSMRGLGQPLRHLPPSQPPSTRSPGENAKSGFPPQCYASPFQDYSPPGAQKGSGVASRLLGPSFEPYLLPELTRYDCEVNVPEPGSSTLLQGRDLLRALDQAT

How the values were obtained:
[1] = molecular target: HIF-1β (rat (endogenous in ventrolateral medulla)) (UniProt P41739); test: co-IP; nuclear fraction of rat ventrolateral medulla (sham, aCSF, Phases I and II of mevinphos intoxication); immunoprecipitated with goat polyclonal anti-HIF-1β on protein G-agarose; immunoblot for HIF-1α or HIF-2α
[2] = molecular target: HIF-1β (rat (endogenous in ventrolateral medulla)) (UniProt P41739); test: co-IP; cytosolic fraction of rat ventrolateral medulla (sham, aCSF, Phases I and II of mevinphos intoxication); immunoprecipitated with anti-HIF-1β antiserum; immunoblot for HIF-1α or HIF-2α; used as a control
[3] = molecular target: small ubiquitin-related modifier-1 (rat (endogenous in ventrolateral medulla)) (UniProt Q5I0H3); test: co-IP; nuclear and cytosolic fractions of rat ventrolateral medulla (sham, aCSF, Phases I and II of mevinphos intoxication); immunoprecipitated with rabbit polyclonal anti-SUMO-1 or mouse monoclonal anti-HIF-1α on protein G-agarose; immunoblot for HIF-1α or SUMO-1
[4] = molecular target: hypoxia-inducible factor-1α (rat (endogenous in ventrolateral medulla)) (UniProt O35800); test: as above

| Substance | binding [1] | binding [2] | binding [3] | binding [4] |
| --- | --- | --- | --- | --- |
| HIF-2α (from UniProt Q9JHS1 1-874) | binds | binds weakly |  |  |
| hypoxia-inducible factor-1α (from UniProt O35800 1-825) | binds | binds weakly | binds |  |
| small ubiquitin-related modifier-1 (from UniProt Q5I0H3 1-97) |  |  |  | binds |
